The list shows only some results of the screen, not a fair sample: it gathers some chemical classes. Not every dose and run of a compound is shown. T/C is the treated group as % of the vehicle group. Where survival is the endpoint, the PubChem record calls one and a half times the control and up active, and a quarter to a half above the control has no call in these data; cut-offs in other NCI protocols can differ. Some T/C values are marked as having no survivor count here; that says nothing about deaths at the dose. Schedule codes are those of the source, read here as Q, the interval in days (D) or hours (H), X, the number of doses.
Test system: BDF1 mice, intracerebral B16 melanoma, median survival T/C
Test: NCI In Vivo Anticancer Drug Screen. Data for tumor model B16 Melanoma (intracerebral) in B6D2F1 (BDF1) mice
Settings: T/C endpoint: median survival time, schedule: Q01DX009 (ip), vehicle: water, higher T/C = longer survival
Method: The antitumor activity of compounds was measured in mice bearing transplantable tumors. Survival or tumor size were measured and the results are expressed as the measurement made in the treated group (T) divided by the measurement made in the vehicle treated control group (C). The tumor model used in this assay is B16 Melanoma (intracerebral) in B6D2F1 (BDF1) mice

In the case of `CN(CCCl)CCCl`, the T/C (dose: 0.25 mg/kg/injection) was 100 % of control [survivor count not shown] and the T/C (dose: 0.5 mg/kg/injection) was 100 % of control [survivor count not shown].

From PubChem BioAssay AID196 (DTP/NCI, 2004)
